Measurements from PMC7509050.

Tested on: YeeY (Aeromonas hydrophila)
Experiment: EMSA
Settings: 10x unlabeled probe used as competitor, EMSA binding buffer listed as (stocks) 1 M Tris-HCl pH 7.5, 5 M NaCl, 1 M KCl, 1 M MgCl2, 0.5 M EDTA pH 8.0, 10 mg/mL BSA, 30 min at 4 C in the dark, PAGE, recombinant protein

Row | Sequence | binding result (label: 5'-Cy5 on strand 1) | binding result
1 | GCTATTTAAACTCTGCCCACCAGCTTGCATACTGGTGGGCAGCGTCTTTTGAGGGGAATAACA (double strand) [PAHA_3222 promoter probe] | binds | –
2 | TAGCATGTCGCTGCTTTATTCGCCTGAGGAACCGGGCTACCGGCATGACCGGGCACCAATAATAAGAA (double strand) [PAHA_4275 promoter probe] | – | binds

The exact form of at least one protein or probe is not confirmed.
